Results deposited as PubChem BioAssay AID504764 (Drosophila RNAi Screening Center, 2011).
Aim: 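Genes whose knock-down alters Notch-dependent transcription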 (primary screen). Cell system: Drosophila Kc167 cells. Reagent: long dsRNA against Drosophila genes. Time to read-out: about 5 days (4 days dsRNA, then 24 h after transfection). Challenge: transfection of constitutively active membrane-tethered Notch lacking the extracellular domain, read 24 h later. Detection: 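Firefly luciferase from an E(spl)m3 reporter with active Notch, plus control-promoter and uninduced reporter wells for normalisation; unnormalised counts, duplicate wells a and b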. Direction: induced reporter light, run 1, well a and induced reporter light, run 1, well b: higher = more light from the Notch target reporter with active Notch; control promoter light, run 1, well a and control promoter light, run 1, well b: higher = more light from the viral control promoter (cell number, transfection, viability); uninduced reporter light, run 1, well a: higher = more light from the Notch target reporter without active Notch. Active means: 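Hit if the duplicate-averaged log2 ratio of induced to control-promoter light gives a plate-wise z beyond ±2, or induced to uninduced beyond ±1.8; weak-control or discordant-duplicate wells dropped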. Meaning of the calls: active = modifier hit (raised or lowered Notch signal); inactive = not a hit.
In all, the deposit lists about 22,000 reagents; shown is an unselected part of those with a known target gene and a result. In the full data, 403 (1.9%) got an active call. 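Unnormalised raw counts per well; ratio z-scores behind the hit calls and whether each hit raises or lowers signal are not deposited.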 No sequences are given here. Not stated in the record: the amount of reagent.

gene | PubChem SID | induced reporter light, run 1, well a | induced reporter light, run 1, well b | control promoter light, run 1, well a | control promoter light, run 1, well b | uninduced reporter light, run 1, well a | Outcome
CG7900 | SID104196128 | 1.06e5 | 1.17e5 | 80925 | 68380 | 5782 | inactive
CG7900 | SID104201122 | – | – | – | – | – | inactive
PIP4K (Phosphatidylinositol 5-phosphate 4-kinase) | SID104197005 | 1.08e5 | 1.10e5 | 1.76e5 | 1.92e5 | 7680 | inactive
rib (ribbon) | SID104186813 | 89325 | 95130 | 1.84e5 | 1.63e5 | 7870 | inactive
Slh (SLY-1 homologous) | SID104180581 | 49950 | 55245 | 63745 | 33305 | 4715 | inactive
fws (four way stop) | SID104182761 | 1.49e5 | 1.71e5 | 1.36e5 | 1.56e5 | 11910 | inactive
CG31788 | SID104181422 | 73375 | 83610 | 81040 | 59660 | 6700 | inactive
Mlh1 | SID104187265 | 1.57e5 | 91160 | 86430 | 83445 | 9385 | inactive
CLIP-190 (Cytoplasmic linker protein 190) | SID104183075 | 3.22e5 | 2.55e5 | 2.64e5 | 3.07e5 | 20345 | inactive
CG7465 | SID104188384 | 2.04e5 | 1.45e5 | 2.01e5 | 1.68e5 | 9530 | inactive
CG6310 | SID104190411 | 1.21e5 | 1.12e5 | 1.81e5 | 1.21e5 | 6945 | inactive
CG7806 | SID104182863 | 1.70e5 | 1.91e5 | 1.68e5 | 1.60e5 | 15890 | inactive
CG7201 | SID104190578 | 2.65e5 | 2.27e5 | 3.11e5 | 2.39e5 | 6700 | inactive
CG6980 | SID104195954 | 1.48e5 | 1.73e5 | 2.23e5 | 2.15e5 | 15945 | inactive
miple1 (midkine and pleiotrophin 1) | SID104188514 | 2.00e5 | 1.76e5 | 2.29e5 | 2.52e5 | 10525 | inactive
CG31643 | SID104180698 | 1.41e5 | 1.17e5 | 1.94e5 | 1.50e5 | 11685 | inactive
CG14401 | SID104182177 | 30635 | 33190 | 30000 | 42520 | 2260 | inactive
Plap (Phospholipase A2 activator protein) | SID104180470 | 1.77e5 | 1.75e5 | 2.18e5 | 1.73e5 | 16570 | inactive
sw (short wing) | SID104200180 | 1.06e5 | 96695 | 84775 | 84680 | 7360 | inactive
CG3587 | SID104198333 | 2.27e5 | 2.14e5 | 2.87e5 | 2.65e5 | 18750 | inactive
